Each structure is given as a SMILES string. Where a name gives a salt, the structure may show the parent alone. Some of the results follow. Part of the spread comes from offsets between plates or batches.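 A clonal Drosophila S2 line expresses Smoothened bearing circularly permuted GFP in its cytoplasmic tail; Hh-driven phosphorylation opens an inhibitory loop, making it fluoresce. Flow cytometry measured per-cell fluorescence, normalized to Hh-stimulated untreated cells. Hits were inhibitor groups with shared pathway targets that consistently shifted fluorescence, not individual compounds.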

This assay relates to Drosophila S2 cl14 SmoIP sensor cells. The assay can be described thus: normalized SmoIP GFP fluorescence (untreated unstimulated = 0%, untreated Hh-stimulated = 100%); higher = more Smo activation sensor fluorescence. As to conditions: compound concentration: 15 uM, 24 h.
Setting [1] is: stimulation: Hh conditioned medium (+Hh).
Where [2] appears, read: stimulation: mock conditioned medium (-Hh).

As to `CCCCCCCCOc1ccccc1C(=O)Nc1ccc(C(=O)OCC[N+](C)(CC)CC)cc1` [otilonium-bromide], the “normalized SmoIP GFP fluorescence” value runs as follows: under setting [1], 163%; under setting [2], 29.2%.
`Cc1cccc(-c2[nH]c(C(C)(C)C)nc2-c2ccc3nccnc3c2)n1`: the “normalized SmoIP GFP fluorescence” value reads like this: under setting [1], 143%; under setting [2], 19.8%.
The like results for `Clc1ccc(Nc2nnc(Cc3ccncc3)c3ccccc23)cc1` [Vatalanib,Dihydrochloride-Salt] were, in that order, 174% and 7.91%.
The like results for `O=C1C(=O)N(Cc2ccc(Cl)c(Cl)c2)c2ccccc21` [apoptosis-activator-2] were, in that order, 111% and 0.0767%.
On the same counts, the results for `CN(C)CC/C=C1/c2ccccc2Sc2ccc(Cl)cc21` [Chlorprothixene] are 154% and 31.7%.
Turning to `COc1cc2c(cc1Cc1cccc(Cl)c1F)c(=O)c(C(=O)O)cn2[C@H](CO)C(C)C` [Elvitegravir], the “normalized SmoIP GFP fluorescence” value runs as follows: under setting [1], 195%; under setting [2], 27.7%.
On the same counts, the results for `CCN(CC)CCOc1ccc(/C(=C(\Cl)c2ccccc2)c2ccccc2)cc1` [Clomifene-citrate-Serophene] are 163% and 33.7%.
The like results for `COc1cc2nc(N(C)CCCNC(=O)C3CCCO3)nc(N)c2cc1OC` (stereo not drawn) [Alfuzosin-hydrochloride] were, in that order, 133% and 0.274%.
On the same counts, the results for `CCOC(=O)c1ccc(NC2CCCCC2)c(N)c1` [ferrostatin-1-fer-1] are 134% and 16.7%.
For `c1ccc2c(c1)CCCC2C1=NCCN1` (stereo not drawn) [tetrahydrozoline-hcl], the “normalized SmoIP GFP fluorescence” value under setting [1] was 113% and the “normalized SmoIP GFP fluorescence” value under setting [2] was -0.775%.
For the compound `CNC(=O)c1ccc(C)c(-n2c(C)cc(OCc3ccc(F)cc3F)c(Br)c2=O)c1`, the “normalized SmoIP GFP fluorescence” value reads like this: under setting [1], 171%; under setting [2], 29.4%.
On the same counts, the results for `COc1ccccc1N1CCN(CC(O)COc2cccc3ccccc23)CC1` (stereo not drawn) [Naftopidil-Dihydrochloride] are 171% and 41.9%.
The like results for `CCC(=O)Nc1cccc(Oc2nc(Nc3ccc(N4CCN(C)CC4)cc3OC)ncc2Cl)c1` were, in that order, 113% and 5.59%.
The like results for `Oc1ccc([C@H]2COc3cc(O)ccc3C2)cc1` [equol] were, in that order, 125% and -11.7%.
Turning to `CN(C)CC[C@H](CSc1ccccc1)Nc1ccc(S(=O)(=O)NC(=O)c2ccc(N3CCN(Cc4ccccc4-c4ccc(Cl)cc4)CC3)cc2)cc1[N+](=O)[O-]`, the “normalized SmoIP GFP fluorescence” value under setting [1] worked out at 198% and the “normalized SmoIP GFP fluorescence” value under setting [2] was determined as 80.9%.
On the same counts, the results for `Cc1cccc(-c2nn3c(c2-c2ccnc4ccc(C(N)=O)cc24)CCC3)n1` are 109% and -9.4%.
The like results for `CN1CCc2nc(C(=O)N[C@@H]3C[C@@H](C(=O)N(C)C)CC[C@@H]3NC(=O)C(=O)Nc3ccc(Cl)cn3)sc2C1` [edoxaban] were, in that order, 162% and 31.7%.
On the same counts, the results for `CCOc1ccc(Cc2cc([C@@H]3O[C@H](CO)[C@@H](O)[C@H](O)[C@H]3O)ccc2Cl)cc1` [Dapagliflozin] are 120% and -1.88%.
`CN1CCN(c2cccc(Nc3nc4c(-c5ccc(S(C)(=O)=O)cc5)cccn4n3)c2)CC1`: the “normalized SmoIP GFP fluorescence” value reads like this: under setting [1], 71.3%; under setting [2], 14.4%.
With `Cc1ccc(Sc2ccccc2N2CCNCC2)c(C)c1`, the “normalized SmoIP GFP fluorescence” value under setting [1] was 182% and the “normalized SmoIP GFP fluorescence” value under setting [2] is -12%.
The like results for `COc1cc(NC(=O)c2ccccn2)ccc1Cl` were, in that order, 106% and -0.0369%.
On the same counts, the results for `CN1CC(=O)N2[C@H](c3ccc4c(c3)OCO4)c3[nH]c4ccccc4c3C[C@@H]2C1=O` [Tadalafil(Cialis)] are 97% and 4.26%.
The like results for `Nc1ncnc2c1c(-c1cnc3[nH]ccc3c1)nn2C1CCCC1` were, in that order, 37.3% and 4.48%.
As to `C=CC(=O)Nc1cccc(Nc2nc(Nc3ccc(OCCOC)cc3)ncc2F)c1`, the “normalized SmoIP GFP fluorescence” value runs as follows: under setting [1], 164%; under setting [2], 80.5%.
Regarding `COc1ccc2cccc(CCNC(C)=O)c2c1` [Agomelatine], the “normalized SmoIP GFP fluorescence” value turned out to be 131% under setting [1] and 1.35% under setting [2].
As for `CN1CCN2c3ccccc3Cc3ccccc3C2C1` (stereo not drawn) [Mianserin-hydrochloride], the “normalized SmoIP GFP fluorescence” value is, setting by setting: under setting [1], 154%; under setting [2], 49.2%.
On the same counts, the results for `C[C@@H]1CCO[C@H]2Cn3cc(C(=O)NCc4ccc(F)cc4F)c(=O)c(O)c3C(=O)N12` are 139% and 0.334%.
The like results for `O=C(Nc1cccc(Cl)c1)c1ccccn1` were, in that order, 124% and -2.71%.
On the same counts, the results for `C[C@@H](c1ncncc1F)[C@](O)(Cn1cncn1)c1ccc(F)cc1F` [Voriconazole] are 145% and 2.97%.
Take `O=c1sn(-c2cccc3ccccc23)c(=O)n1Cc1ccccc1` [tideglusib]: the “normalized SmoIP GFP fluorescence” value is, setting by setting: under setting [1], 121%; under setting [2], 31.2%.
On the same counts, the results for `CC#CCn1c(N2CCC[C@@H](N)C2)nc2c1c(=O)n(Cc1nc(C)c3ccccc3n1)c(=O)n2C` [linagliptin-bi-1356] are 125% and 16.7%.
On the same counts, the results for `O=C1NC(=O)/C(=C/c2ccc3c(c2)OC(F)(F)O3)S1` are 164% and 11.9%.
The like results for `C[C@]12CC[C@@H]3c4ccc(O)cc4CC[C@H]3[C@@H]1CCC2=O` [Estrone] were, in that order, 135% and -0.0496%.
For `NC(=O)c1cn(Cc2c(F)cccc2F)nn1` [Rufinamide], the “normalized SmoIP GFP fluorescence” value was 143% under setting [1] and -1.88% under setting [2].
